Measurements as given in PMC8916034, “Abubidentin A, New Oleanane-type Triterpene Ester from Abutilon bidentatum and its antioxidant, cholinesterase and antimicrobial activities” (PeerJ, 2022).
Values joined by “and” are separate entries in the source; they are usually repeats but may differ in a detail not shown here. Equal entries are not always repeated.

Assay: ABTS radical cation decolorization assay
Settings: Conc. 20 µg/mL; single trials A, B, C
Protocol: ABTS radical cation decolorization assay was performed to measure the total antioxidant activity of the samples by obeying the previously described method ([Re et al., 1999]). In brief, ABTS^•+ radicals were generated by treating 7 mM ABTS^+ aqueous solution with 2.4 mM potassium persulfate for 12-16 h at room temperature in the dark. Prior to use, this solution was diluted with ethanol (approx. 1:89 v/v) and equilibrated to […] absorbance at 734 nm to obtain the working solution. Afterward, a 1.0 mL of working solution was reacted with 20 µL (1 mg mL^−1) samples and incubated for 30 min. After incubation, samples were scanned at 734 nm absorbance wavelength and the percentage of inhibition was determined. Ascorbic acid (AA) was applied reference standard.

Q: With `CCCCCCCCCCCCCCCCCCCCCCCCCCCCCCCC(=O)O[C@H]1C[C@H](O)[C@]2(C)C3=CC=C4[C@@H]5CC(CO)(C(=O)O)CC[C@]5(C)CC[C@@]4(C)[C@]3(C)CCC2C1(C)C` (stereo partly drawn) [Compound 3, 1α,3β,30-Trihydroxy-29-carboxy-olean-9(11), 12-diene-3-dotriacontanoate] as the compound, how does the “Abs (ABTS+ activity)” value read?
A: 0.515 and 0.512 and 0.489

Q: For `CCCCCCCCCCCCCCCCCCCCC(O)C(=O)O` (stereo not shown) [Compound 1, 2-hydroxydocosanoic acid], which “Abs (ABTS+ activity)” value is on record?
A: 0.685 and 0.680 and 0.670

Q: With `O=C1O[C@H]([C@@H](O)CO)C(O)=C1O` [Ascorbic acid, ascorbic acid, reference compound] as the compound, how does the “Abs (ABTS+ activity)” value read?
A: 0.512 and 0.515 and 0.518

Q: Which “Abs (ABTS+ activity)” value does the source give for `CC[C@@H](/C=C/[C@@H](C)C1CCC2C3CCC4C[C@@H](O)CC[C@]4(C)C3CC[C@@]21C)C(C)C` (stereo partly drawn) [Compound 2, stigmasta-22-ene-3-β-ol] here?
A: 0.578 and 0.572 and 0.574
